The values below come from patent US10829516B2 (London Health Sciences Centre Research Inc., priority 2015, dated 2020).

Non-standard residues stand in square brackets, D forms with d. d2Nal = N[C@H](Cc1ccc2ccccc2c1)C(=O)O; Aib = CC(C)(N)C(=O)O

The nature of the series: general procedure: Fmoc solid-phase peptide synthesis; Rink amide MBHA resin (0.52 mmol g-1 loading); HCTU/DIPEA. Conditions: whole synthesis; for isolated yield: scale of the general procedure 0.1 mmol.

Regarding H-Inp-His-D-2-Nal-D-2-Nal-Lys(4-FB)-NH2, the isolated mass was 11.3 mg and the isolated yield came to 10%.

Turning to H-Inp-D-2-Nal-D-2-Nal-1-Nal-Lys-NH2, the isolated mass worked out at 24.9 mg and the isolated yield stood at 23%.

Regarding “H-Inp-D-2-Nal-D-2-Nal-1-Nal-Lys(4-FB)-NH2”, the isolated mass came to 9.80 mg and the isolated yield was 9%.

As for H-[dA][d2Nal]AW[dF]K-NH2, the isolated mass was 19.7 mg and the isolated yield worked out at 17%.

As to H-[Aib]H[d2Nal][dF]K-NH2, the isolated mass came out at 20.5 mg and the isolated yield was 19%.

In turn, H-Inp-D-2-Nal-D-2-Nal-Phe-Lys-NH2 yielded an isolated mass of 6.70 mg and an isolated yield of 7%.

The substance H-Aib-His-D-2-Nal-D-2-Thi-Lys(4-FB)-NH2 displayed an isolated mass of 4.20 mg and an isolated yield of 4%.

As for H-His-D-Trp-Ala-Trp-D-Phe-Lys(4-FB)-NH2, the isolated mass was 9.60 mg and the isolated yield is 7%.

Turning to “H-Aib-His-D-2-Nal-D-Phe-Lys(4-FB-AEEA)-NH2”, the isolated mass amounted to 9.2 mg and the isolated yield was 8%.

On to H-Inp-His-D-2-Nal-D-2-Thi-Lys(4-FB)-NH2, for which the isolated mass worked out at 14.0 mg and the isolated yield came to 13%.

In turn, H-Aib-His-D-2-Nal-D-Phe-Lys(4-FB)-NH2 yielded an isolated mass of 15.4 mg and an isolated yield of 15%.

H-H[dW]AW[dF]K-NH2 yielded an isolated mass of 19.7 mg and an isolated yield of 14%.

H-His-D-Trp-Ala-Trp-D-Phe-Dpr(4-FB)-NH2 came in with an isolated mass of 19.8 mg and an isolated yield of 14%.

Take H-Inp-His-D-2-Nal-D-Phe-Lys(4-FB)-NH2: the isolated mass is on record as 6.30 mg and the isolated yield came to 6%.

As to H-Inp-D-2-Nal-D-2-Nal-Phe-Lys(4-FB)-NH2, the isolated mass was determined as 5.90 mg and the isolated yield turned out to be 6%.

As for H-AH[d2Nal]AW[dF]K-NH2, the isolated mass is on record as 26.4 mg and the isolated yield stood at 19%.
